## Assay results

From PubChem BioAssay record AID1347110 (NCATS, 2019).

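A673 Ewing sarcoma cells treated with compound for 48 h, with viable cell amount judged from a luminescence signal of metabolically active cells.
Each compound ran as an 11-point titration, from about 0.78 nM to roughly 46 µM.
Potency is the fitted AC50 for the drop in viability; a smaller value means a more potent cytotoxic effect.
Calls follow NCATS curve-class scoring: well-fitted cytotoxic curves score 40–100 as active, weak, partial or top-dose-only curves score 1–39 as inconclusive, and flat curves are inactive.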

Values are in µM.
All entries here are filed as inconclusive.
Only part of the assay is shown, chiefly results filed as inconclusive.
Potencies fitted to partial, single-point or poorly fitting curves are rough.
Activity scores are not listed here.

compound: CC1(C)CCC2=C(O1)c1ccccc1C(=O)C2=O
fitted potency (µM): 32.91
remark: cytotoxic, single point

compound: CC(=O)[C@H]1CC[C@H]2[C@@H]3CCC4=CC(=O)CC[C@]4(C)[C@H]3CC[C@]12C
fitted potency (µM): 26.14
remark: cytotoxic, single point

compound: Cn1cc(C2=C(c3cn(C4CCN(Cc5ccccn5)CC4)c4ccccc34)C(=O)NC2=O)c2ccccc21
fitted potency (µM): 32.91
remark: cytotoxic, single point

compound: Cc1ccc2c(c1)C(=O)[C@]1(O)CCN(c3ccccc3)C1=N2
fitted potency (µM): 23.3
remark: cytotoxic, partial curve, poor fit

compound: NC(=O)c1ccc(I)c([N+](=O)[O-])c1
fitted potency (µM): 109.9
remark: cytotoxic, single point

compound: O=C1NC(=O)C(=Cc2ccc3c(c2)OC(F)(F)O3)S1
fitted potency (µM): 36.92
remark: cytotoxic, partial curve, poor fit

compound: CN1N=C(N)c2cn([C@@H]3O[C@H](COP(=O)(O)O)[C@@H](O)[C@@H]3O)c3ncnc1c23
fitted potency (µM): 16.49
remark: cytotoxic, partial curve

compound: CN[C@@H](C)C(=O)N[C@H]1CN(C(=O)CC(C)C)CC[C@H]2CC[C@@H](C(=O)NC(c3ccccc3)c3ccccc3)N2C1=O
fitted potency (µM): 36.92
remark: cytotoxic, single point